Experimental data: article PMC6828672
No constants are given. Whether binding was seen depends on the method and setting. Binding seen in cells or lysates may run through a third protein. Here binding means that the protein was enriched with, or labelled near, the bait; the list need not be complete. Tags and fused reporters may be left off the sequences shown.

Biological target: T1, human KCASH2, N-terminally HA and Flag tagged (human) (UniProt Q4G0X4)
T1 sequence: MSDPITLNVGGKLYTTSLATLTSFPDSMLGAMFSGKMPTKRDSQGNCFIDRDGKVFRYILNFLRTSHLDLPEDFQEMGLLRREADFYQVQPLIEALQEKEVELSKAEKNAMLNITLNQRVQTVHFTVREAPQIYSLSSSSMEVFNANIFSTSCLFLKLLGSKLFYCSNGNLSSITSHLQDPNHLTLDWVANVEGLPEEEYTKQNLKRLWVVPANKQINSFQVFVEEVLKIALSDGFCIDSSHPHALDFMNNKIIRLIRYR
Assay: affinity purification with mass spectrometry; sequential double co-immunoprecipitation (HA and Flag) of the lysate of HEK293T cells transfected with HA-Flag-KCASH2; MALDI-TOF mass spectrometry; polypeptides with ≥3 peptides selected

binding: binds
B1: Potassium Channel Tetramerization Domain Containing 15 (KCTD15), found in the KCASH2 co-immunoprecipitate of HEK293T cells (protein, UniProt Q96SI1 1-283)
chain: MPHRKERPSGSSLHTHGSTGTAEGGNMSRLSLTRSPVSPLAAQGIPLPAQLTKSNAPVHIDVGGHMYTSSLATLTKYPDSRISRLFNGTEPIVLDSLKQHYFIDRDGEIFRYVLSFLRTSKLLLPDDFKDFSLLYEEARYYQLQPMVRELERWQQEQEQRRRSRACDCLVVRVTPDLGERIALSGEKALIEEVFPETGDVMCNSVNAGWNQDPTHVIRFPLNGYCRLNSVQVLERLFQRGFSVAASCGGGVDSSQFSEYVLCREERRPQPTPTAVRIKQEPLD
